In PubChem BioAssay AID493014 (National Center for Advancing Translational Sciences (NCATS), 2011):
Hit rate of the full screen: of about 340,000 compounds, about 170 (0.05%) were called active. Inconclusive means that the source gave no clear call. Such entries were picked first, then a sample of the others. The call rests on the fitted dose curve; in most records, active means well fitted inhibition curve with a large enough effect in the signal ratio, with a control signal flat (not every such curve was filed as active); inconclusive means small, poorly fitted or top-dose-only effect, or effect the other way, or a change in a side signal; inactive means flat fitted curve, though single readings scatter; the % refers to the signal ratio. Potencies beside an inconclusive call are fits to weak or partial responses and may not hold up.

Test: qHTS Assay to Find Inhibitors of Chronic Active B-Cell Receptor Signaling;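 on activity change, negative = inhibition: plate controls were basal doxycycline-induced cells for no effect and cells given 10 µM MG132 for full effect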
Conditions: ABC-DLBCL IkBa-CBG/CBR reporter, luminescence ratio (green luciferase fused to IkBa over red control in TMD8 lymphoma cells), 4 h; activity change, negative = inhibition: at 46.1 µM (top of the series)
Summary of the method: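 Concentration-response series (up to 46 uM) were applied to TMD8 dual-reporter cells for 4 h at 37C with doxycycline. Green/red ratio, after filter-overlap correction, defined %Activity; red signal alone was normalised to basal cells and zero luminescence.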
Potency means the concentration at half of the fitted maximal effect.

| SMILES | activity change, negative = inhibition | Potency |
| --- | --- | --- |
| COCCn1c(C)cc(C(=O)CSc2nnnn2C2CCCC2)c1C | inactive: -0.269% |  |
| O=C(O)c1cccnc1SCc1cccc(Br)c1 | inconclusive: -0.959% |  |
| Cc1cc2nc3c(c(C(F)(F)F)n2n1)CCCC3 | inconclusive: -0.0324% |  |
| c1ccc(CN2CCN(Cc3c[nH]c4ccccc34)CC2)cc1 | inactive: -1.74% |  |
| O=C(NCCc1ccc2c(c1)OCCO2)c1ccccc1F |  | inconclusive: 13 µM [falling, partial curve] |
| CCCCN1C(=O)CN(C2CCCCCC2)C(=O)C1c1ccc(OCCC)c(OC)c1 (stereo not drawn) | inactive: -0.828% |  |
| C#CCn1c(=NC(=O)c2ccc(S(=O)(=O)N3CCc4ccccc4C3)cc2)sc2cc(S(N)(=O)=O)ccc21 | inconclusive: 0.845% |  |
| COc1cccc(C(=O)Nc2c(F)cccc2F)c1 |  | inconclusive: 6.31 µM [falling, full curve] |
| CC1CCCN(c2ccc(/C=C(\C#N)c3nn(-c4ccccc4)c(N)c3C#N)cc2[N+](=O)[O-])C1 (stereo not drawn) | inconclusive: 11.9% |  |
| O=C(NCc1ccco1)c1cc2c(s1)CCCCC2 | inconclusive: 335% |  |
| CCc1ccc(C(=O)Nc2ccc(OC)c(S(=O)(=O)N3CCCCC3)c2)cc1 | inconclusive: -4.41% |  |
| COc1cccc(-n2c(=O)n(Cc3ccccc3)c(=O)c3[nH]cnc32)c1C | inconclusive: 10.8% |  |
| Cc1nc2ccc(NC(=O)c3cncc(Br)c3)cc2s1 | inactive: -0.834% |  |
| O=Cc1ccc(OC(=O)/C=C/c2ccccc2)cc1 |  | inconclusive: 12.6 µM [falling, partial curve, poor fit] |
| Cc1ccc(NC(=O)C2C(=O)N(CCO)C3(C)CC2c2ccccc2O3)cc1 (stereo not drawn) | inconclusive: 10.5% |  |
| CCOC(=O)C1CCN(C(=O)Cn2nc(C)n3c(cc4cc(F)ccc43)c2=O)CC1 | inactive: -7.1% |  |
| CN(C)c1ccc(C(=O)/C=C/c2ccccc2)cc1 |  | inconclusive: 3.98 µM [falling, single point] |
| O=C(COc1ccc2ccc(=O)oc2c1)c1ccccc1 |  | inconclusive: 12.6 µM [falling, single point] |
| COC(=O)C1=C(C)NC(C)=C(C(=O)OC)C1c1ccc(OC(=O)c2ccco2)cc1 | inconclusive: -2.84% |  |
| CCOc1ccccc1NC(=O)CSc1nc(N)c(C#N)cc1C#N | inactive: -3.16% |  |
| CC(=O)N1N=C(c2ccc(C)cc2)OC1c1cccnc1 (stereo not drawn) | inconclusive: 0.614% |  |
| COc1ccc(/C(C)=N/Nc2cccc(C(=O)O)c2)cc1OC |  | inconclusive: 8.91 µM [falling, partial curve] |
| COc1ccccc1N(CC(=O)NCCSCc1ccccc1)S(=O)(=O)c1ccc(C)cc1 | inactive: 12% |  |
| CCCC(=O)Nc1nc(C)c(-c2csc(Nc3ccccc3C)n2)s1 | inconclusive: 2.54% |  |
| COc1ccc(/C=C/C(=O)Nc2ccccc2C(F)(F)F)cc1OC |  | inconclusive: 17.8 µM [falling, partial curve] |
| Clc1ccc(-c2nc3ncccn3c2Nc2ccc3c(c2)OCO3)cc1 | inconclusive: 5.41% |  |
| Cc1ccc(C)c(S(=O)(=O)N2CCCC2CNC(=O)C(=O)NCC2CCCO2)c1 (stereo not drawn) | inconclusive: -0.606% |  |

| SMILES | activity change, negative = inhibition | Potency |
| --- | --- | --- |
| CCOC(=O)c1cc2c(C)[nH]c(C)c2cc(C(=O)OCC)c1=O | inconclusive: 1.25% |  |
| CCn1c(=O)n(CC)c2cc(S(=O)(=O)Nc3c(C)cccc3C)ccc21 | inconclusive: -1.18% |  |
| COc1cc(C(=O)N/N=C/c2ccc(OC(=O)c3cccc(C)c3)c(OC)c2)ccc1O | inconclusive: 0.453% |  |
| CC1(C(=O)OCC(=O)Nc2ncc(Cl)cc2Cl)CC1(Cl)Cl (stereo not drawn) | inconclusive: -6.06% |  |
| COc1ccc(C(=O)Nc2nc3ccccc3[nH]2)cc1OC |  | inconclusive: 4.11 µM [falling, single point] |
| COc1ccc(C(CNC(=O)C(C)c2ccc3cc(OC)ccc3c2)N(C)C)cc1 (stereo not drawn) | inconclusive: -10.3% |  |
| CCOC(=O)CNC(=O)C1CCCN(c2ncccn2)C1 (stereo not drawn) | inactive: -0.1% |  |
| COc1ccc(/C=C/C(=O)NCC2COc3ccccc3O2)cc1OC (stereo not drawn) | inconclusive: 12.2% |  |
| O=C(Nc1ccc2c(c1)OCO2)c1cc2nc(C3CC3)cc(C(F)(F)F)n2n1 | inconclusive: 1.93% |  |
| CN(C)C(=O)N1CCN(c2nc(-c3ccccc3)cs2)CC1 | inconclusive: 1.94% |  |
| Cc1cc(C=O)c(C)n1-c1ccc(NC2CCCC2)c([N+](=O)[O-])c1 | inconclusive: 26.9% |  |
| CC1CCN(c2ccc(-c3cccc(NC(=O)c4ccco4)c3)nn2)CC1 |  | inconclusive: 16.4 µM [falling, partial curve] |
| c1ccc(C2=NNC(=NCc3ccc4c(c3)OCO4)SC2)cc1 |  | inconclusive: 11.6 µM [falling, partial curve, poor fit] |
| COCCN1C(=O)C(CC(=O)Nc2ccc(C(=O)O)cc2)SC1=Nc1ccccc1 (stereo not drawn) | inconclusive: 1.02% |  |
| COc1ccc2c(c1)CC/C(=C/c1cc(OC)c(OC)c(OC)c1)C2=O |  | inconclusive: 35.5 µM [falling, single point] |
| S=C(Nc1cccnc1)NC1CC2CCC1C2 (stereo not drawn) | inconclusive: -8.06% |  |
| CCCNC(=S)Nc1cccc(C(F)(F)F)c1 | inactive: 5.95% |  |
| O=C(NC1CSCC1OC(=O)c1ccccc1)c1ccccc1 (stereo not drawn) | inconclusive: -13% |  |
| O=[N+]([O-])c1ccc(N2CCN(c3ccccn3)CC2)c(Cl)c1 | inconclusive: 11.3% |  |
| O=C(Nc1cccc(S(=O)(=O)N2CCCCC2)c1)c1cc2ccccc2o1 | inactive: 6.64% |  |
| CC(=O)c1sc2nsc(SCCN3CCOCC3)c2c1N | inconclusive: 13.6% |  |
| CCOC(=O)c1cc(-c2ccccc2)n(CCCC(=O)Nc2ccc(C(C)C)cc2)c1C | inconclusive: 14.8% |  |
| Cc1c(C)n2c(SCC(=O)N3CCCCC3)nnc2[nH]c1=O | inconclusive: 14.7% |  |
| CCOc1ccc(/C=N/NC(=O)c2cc3c(OC)cc(OC)c(OC)c3[nH]2)cc1 |  | inconclusive: 35.5 µM [falling, single point] |
| CN1CCN(Cc2ccc(Sc3ccc(Cl)cc3)c([N+](=O)[O-])c2)CC1 | inactive: 10.2% |  |
| Cc1ccc(CSc2nnc(SCC(=O)N/N=C/c3ccc(C(=O)O)cc3)s2)cc1 | inconclusive: -16.8% |  |

Taken from above.
COCCN1C(=O)C(CC(=O)Nc2ccc(C(=O)O)cc2)SC1=Nc1ccccc1 (stereo not drawn) – activity change, negative = inhibition: inconclusive: 1.02%
O=[N+]([O-])c1ccc(N2CCN(c3ccccn3)CC2)c(Cl)c1 – activity change, negative = inhibition: inconclusive: 11.3%
CCOC(=O)c1cc2c(C)[nH]c(C)c2cc(C(=O)OCC)c1=O – activity change, negative = inhibition: inconclusive: 1.25%
